According to patent US20240018251A1 (BIOHENG THERAPEUTICS, published 2024):
Numbering of substitutions follows the chain as printed. Results are given in words; binding and its absence hold for the method and conditions named. Some results given as binding are weak or reduced against the parent protein; the word gives no strength.

By UniProt entry, the sequences of proteins in these tests, tags left out. Residues count along the entry.
UniProt Q02223, residues 1-54: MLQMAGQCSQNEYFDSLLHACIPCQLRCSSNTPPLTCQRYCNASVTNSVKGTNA

B1: anti-BCMA single domain antibody clone BH59 (VHH)
VHH: QEVLMESGGGLVQAGESLRLSCAASGRAISSIVMAWWRQTPGAEREFVASINRWGGTPYYSHSVKGRFTITRDHAKNTIHLQMNNLKSADTAVYYCAAASTLDSGYDYWGQGTLVTVS
B2: anti-BCMA single domain antibody clone BH60 (VHH)
VHH: QEQLVESGGGSVQPGGSLRLSCVVSGGIFTINDMAWFRQAPGKQRELVAHISRSGSTYYRDFVKGRFTISRNNAKNTSYLQMNNLKPEDTATYYCNSIDRPLSYGQGTQVTVS
B3: anti-BCMA single domain antibody clone BH80 (VHH)
VHH: B2 VHH with Q109L
B4: anti-BCMA single domain antibody clone BH81 (VHH)
VHH: QVHLVESGGGLVKAGGSLRLSCVVSGITLSSYSMAWFRQAPGKQRELVAHISRSGSTYYRDFVKGRFTISRNNAKNTSYLQMNNLKPEDTATYYCNSIDRPLSYGQGTQVTVS
B5: anti-BCMA single domain antibody clone BH82 (VHH)
VHH: B2 VHH with Q3R, Q13H, P14A, V24A, R60A, R71K, N84S, E88D, Q109L
B6: anti-BCMA single domain antibody clone BH83 (VHH)
VHH: B2 VHH with Q3R, Q13H, P14A, V24A, R60A, R71K, N84S, E88D
B7: anti-BCMA single domain antibody clone BH84 (VHH)
VHH: B2 VHH with E2V
B8: anti-BCMA single domain antibody clone BH86 (VHH)
VHH: B1 VHH with H62N, T69A, Q111H, L114Q
B9: anti-BCMA single domain antibody clone BH87 (VHH)
VHH: B1 VHH with H62N, T69A

Biological target: BCMA (B cell maturation antigen) (UniProt Q02223)
Assay: ELISA screening of phage display library, three rounds

binding, binds:
B1
B2
B3
B4
B5
B6
B7
B8
B9
